In publication PMC5846053 one finds binding data, which are given here for three molecules.

Assay [1] addresses T1, BD-PevD1 (PevD1 without the signal peptide sequence in pGBKT7) (Verticillium dahliae) (UniProt G2WWV6).
T1 sequence: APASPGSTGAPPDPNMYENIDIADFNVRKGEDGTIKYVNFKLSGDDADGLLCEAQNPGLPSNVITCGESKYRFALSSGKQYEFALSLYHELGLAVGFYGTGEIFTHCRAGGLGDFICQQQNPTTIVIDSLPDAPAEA
The experiment in a line: two-hybrid; Matchmaker Gold system, Y2H gold yeast; PevD1 in pGBKT7 (BD), Nbnrp1 and fragments in pGADT7 (AD); growth on SD/-Ade/-His/-Leu/-Trp with Aureobasidin A and x-α-gal.

Assay [2] has as its target GST-Nbnrp1 (Nicotiana benthamiana). The experiment in a line: pull-down; GST pull-down: 6 × His tagged PevD1 and GST-fused protein mixed with GST affinity resin at 4°C for 4 h, washed with PBS, eluted with PBS, 20 mM GSH; Western blot with anti-His and anti-GST; both purified. A general note: A western blot detects proteins with antibodies after separation by electrophoresis.

The target of assay [3] is GST-Nbnrp1ΔN (Nicotiana benthamiana). The description is as above.

Results are given in words; binding and its absence hold for the method and conditions named. Binding can be weak; no strength is given. Where a sequence is shown, tags or fusion partners need not be part of it.

Turning to “AD-Nbnrp1ΔC (residues 1-199, N-rich domain) in pGADT7 (Nicotiana benthamiana) (domain or fragment)”, the binding result in assay [1] is recorded as “no binding”.
For the molecule “AD-Nbnrp1ΔN (residues 200-332, DCD domain) in pGADT7 (Nicotiana benthamiana) (domain or fragment)”, the binding result in assay [1] is on record as “binds”.

B1: 6 × His tagged PevD1 (protein, UniProt G2WWV6 19-155)
chain: APASPGSTGAPPDPNMYENIDIADFNVRKGEDGTIKYVNFKLSGDDADGLLCEAQNPGLPSNVITCGESKYRFALSSGKQYEFALSLYHELGLAVGFYGTGEIFTHCRAGGLGDFICQQQNPTTIVIDSLPDAPAEA
As for B1, the binding entry in assay [2] and in assay [3] was “binds” each time.
